From publication PMC12321133, “scFv intrabody targeting wildtype TDP-43 presents protective effects in a cellular model of TDP-43 proteinopathy” (PLOS One, 2025) come the findings set out here.

The chains behind the UniProt entries cited, without tags or fusion partners.
UniProt Q13148: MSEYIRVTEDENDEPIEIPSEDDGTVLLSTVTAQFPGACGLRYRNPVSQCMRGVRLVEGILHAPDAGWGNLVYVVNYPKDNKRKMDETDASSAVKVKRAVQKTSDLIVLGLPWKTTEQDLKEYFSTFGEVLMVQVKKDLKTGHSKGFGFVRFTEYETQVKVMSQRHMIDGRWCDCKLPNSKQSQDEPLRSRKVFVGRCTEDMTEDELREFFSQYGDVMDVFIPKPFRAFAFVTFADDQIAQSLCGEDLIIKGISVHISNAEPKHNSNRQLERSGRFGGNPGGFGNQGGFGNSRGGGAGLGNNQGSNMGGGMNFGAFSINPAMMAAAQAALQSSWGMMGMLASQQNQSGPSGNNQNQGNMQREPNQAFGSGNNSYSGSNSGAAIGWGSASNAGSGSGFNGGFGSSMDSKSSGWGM

Results are given in words; binding and its absence hold for the method and conditions named. Some entries that bind do so weakly or less than the wild type. Where a sequence is shown, tags or fusion partners need not be part of it.

Assay [1] addresses GFP-wtTDP-43-6xHis (human) (UniProt Q13148). Briefly: ELISA; monoclonal phage ELISA: plates coated with 1.0 µg/mL GFP-6xHis or GFP-wtTDP-43-6xHis; 50 µL phage culture supernatant (TG1, KM13 helper phage) in MPBS, 1 h at RT; detected with HRP-conjugated anti-M13 antibody, absorbance at 450 nm; only the target purified. Background: ELISA stands for enzyme-linked immunosorbent assay.

The target in assay [2] is commercial recombinant human full-length wtTDP-43 (Abcam, ab224788) (human) (UniProt Q13148). The assay can be described thus: ELISA; indirect ELISA: wells coated overnight at 4 °C with commercial human wtTDP-43 at 1 µg/mL in PBS; purified scFv at 1, 5 or 10 µg/mL, 1 h at RT; detected with HRP-conjugated anti-6xHis antibody, absorbance at 450 nm; both purified.

B1: scFv B1 displayed on M13 phage (fused to pIII) (scFv)
scFv: MAEVQLVESGGSLVKPGGSLRLSCAASGFTFSNYDMNWVRQAPGKGLEWISDIDGSSRNIYYADFVKGRFTISRDNATNSLYLQMNSLRAEDTAVYYCVRSSYYDNGMDVWGRGTLVTVSSGGGGSGGGGSGGGGSQSVLTQPASVSGSPGQSITISCAGTSSDVGGYDGVSWYQQHPGKAPKLMIYYDSYRPSGVSNRFSGSKSGNTASLTISGLQAEDEADYYCSSYTYYSTRVFGGGTKLAVLG
On to B1, for which, in assay [1], the binding result is given as “binds”.

B2: scFv B1, purified (c-myc and 6xHis tags) (scFv)
scFv: B1 scFv
notes: VH of scFv B1 as printed; linker of the HuscI library between VH and VL; VL of scFv B1; Selected from the human synthetic HuscI library; The scFv was moved as an NcoI-NotI fragment from pHEN-HuscI into pET-23NN, which adds c-myc and 6xHis at the 3' end; source: E. coli BL21(DE3)pLysS, pET-23NN vector, purified (Ni-NTA, dialysed in MilliQ water); not shown: c-myc, C-terminal, kept; His6, …
For B2, the binding result in assay [2] is “binds”.

B3: scFv D7 displayed on M13 phage (fused to pIII) (scFv)
scFv: MAEVQLVESGGSLVKPGGSLRLSCAASGFTFSNYYMNWVRQAPGKGLEWISDIYGSSRYISYADFVKGRFTISRDNATNSLYLQMNSLRAEDTAVYYCVRSSSNDGGGMDVWGRGTLVTVSSGGGGSGGGGSGGGGSQSVLTQPASVSGSPGQSITISCAGTSSDVGGNNYVSWYQQHPGKAPKLMIYYDSYRPSGVSNRFSGSKSGNTASLTISGLQAEDEADYYCSSYTYSSTRVFGGGTKLAVLG
In the case of B3, the binding entry in assay [1] was “binds”.

B4: scFv D7, purified (c-myc and 6xHis tags) (scFv)
scFv: B3 scFv
notes: VH of scFv D7 as printed; linker of the HuscI library between VH and VL; VL of scFv D7; Selected from the human synthetic HuscI library; The scFv was moved as an NcoI-NotI fragment from pHEN-HuscI into pET-23NN, which adds c-myc and 6xHis at the 3' end; source: E. coli BL21(DE3)pLysS, pET-23NN vector, purified (Ni-NTA, dialysed in MilliQ water); not shown: c-myc, C-terminal, kept; His6, …
Consider B4, for which, in assay [2], the binding result is given as “binds”.
